Laboratory results published in PMC9936748.
No constants are given. Whether binding was seen depends on the method and setting. Binding seen in cells or lysates may run through a third protein. Some entries that bind do so weakly or less than the wild type. For part of these data: Sequences can lack the tags named with a protein.

Sequences of proteins named here, by UniProt entry; tags and fusion partners are left off.
UniProt Q92786: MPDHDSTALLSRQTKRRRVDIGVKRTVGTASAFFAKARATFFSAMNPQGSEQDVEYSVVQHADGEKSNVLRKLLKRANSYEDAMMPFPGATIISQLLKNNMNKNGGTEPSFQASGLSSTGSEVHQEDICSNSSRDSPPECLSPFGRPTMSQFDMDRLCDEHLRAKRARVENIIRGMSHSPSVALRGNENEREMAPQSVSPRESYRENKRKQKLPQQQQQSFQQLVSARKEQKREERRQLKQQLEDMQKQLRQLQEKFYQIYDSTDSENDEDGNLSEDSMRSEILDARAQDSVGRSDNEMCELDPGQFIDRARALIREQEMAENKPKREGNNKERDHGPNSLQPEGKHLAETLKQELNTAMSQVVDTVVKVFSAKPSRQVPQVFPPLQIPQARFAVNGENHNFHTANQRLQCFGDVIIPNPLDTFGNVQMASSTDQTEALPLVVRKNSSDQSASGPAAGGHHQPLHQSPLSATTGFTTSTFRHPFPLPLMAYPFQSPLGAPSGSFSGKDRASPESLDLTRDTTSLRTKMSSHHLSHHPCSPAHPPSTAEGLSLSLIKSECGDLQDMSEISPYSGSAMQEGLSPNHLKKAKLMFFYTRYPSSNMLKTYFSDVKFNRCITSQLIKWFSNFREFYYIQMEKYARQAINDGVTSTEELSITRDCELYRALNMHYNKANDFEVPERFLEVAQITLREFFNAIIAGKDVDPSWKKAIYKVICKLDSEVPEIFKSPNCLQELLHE

Key:
[1] = molecular target: T1, GST-NAA10 (UniProt P41227); assay: pull-down; GST-pulldown assay: GST-NAA10 as bait, Flag-PROX1 as prey
T1 sequence: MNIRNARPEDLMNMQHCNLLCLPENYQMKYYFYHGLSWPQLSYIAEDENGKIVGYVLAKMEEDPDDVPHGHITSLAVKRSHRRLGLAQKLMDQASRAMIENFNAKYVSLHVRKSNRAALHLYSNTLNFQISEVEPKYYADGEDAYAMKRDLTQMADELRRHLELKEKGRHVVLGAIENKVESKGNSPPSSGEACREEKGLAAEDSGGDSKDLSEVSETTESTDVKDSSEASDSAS

[2] = molecular target: T2, N-α-acetyltransferase 10 (NAA10), endogenous in HLECs (human (endogenous in HLECs)) (UniProt P41227); assay: co-IP; endogenous proteins in HLECs; precipitated with NAA10 antibody or with PROX1 antibody, detected by western blot; repeated with circ_0026611 overexpression (Fig. 6D)
T2 sequence: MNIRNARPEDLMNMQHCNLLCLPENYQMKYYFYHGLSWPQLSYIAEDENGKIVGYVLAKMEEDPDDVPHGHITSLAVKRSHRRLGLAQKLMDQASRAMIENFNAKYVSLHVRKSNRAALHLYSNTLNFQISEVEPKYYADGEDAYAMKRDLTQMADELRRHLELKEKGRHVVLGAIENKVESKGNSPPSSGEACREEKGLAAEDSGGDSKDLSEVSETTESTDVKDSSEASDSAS

[3] = molecular target: prospero homeobox 1 (PROX1), endogenous in HLECs (human (endogenous in HLECs)) (UniProt Q92786); assay: as above

## Flag-PROX1 (from UniProt Q92786 1-737)
[1]
  binding: binds

## prospero homeobox 1 (PROX1), endogenous in HLECs (from UniProt Q92786 1-737)
[2]
  binding: binds

B1: N-α-acetyltransferase 10 (NAA10), endogenous in HLECs (enzyme, UniProt P41227 1-235)
chain: MNIRNARPEDLMNMQHCNLLCLPENYQMKYYFYHGLSWPQLSYIAEDENGKIVGYVLAKMEEDPDDVPHGHITSLAVKRSHRRLGLAQKLMDQASRAMIENFNAKYVSLHVRKSNRAALHLYSNTLNFQISEVEPKYYADGEDAYAMKRDLTQMADELRRHLELKEKGRHVVLGAIENKVESKGNSPPSSGEACREEKGLAAEDSGGDSKDLSEVSETTESTDVKDSSEASDSAS
[3]
  binding: binds
